Measured values taken from patent publication US20250287947A1, “BIOCIDES AND ADHESIVE BINDING THEREOF” (EBERHARD KARLS UNIVERSITÄT TÜBINGEN MEDIZINISCHE FAKULTÄT, priority 2022, published 2025).
Further values from the same series stand in other lists.

Assay: Interactions between salt concentration, temperature and pH on the state of matter of Py-C12 (Example 3)
Format: physicochemical
Set-up: key: X: liquid; o: solid
Details: 5% w/v
Method: […] The samples were combined with NaCl solutions using concentrations between 0 and 3 M in water and subsequently incubated at temperatures between 24° C. and 45° C.

SMILES: CCCCCCCCCCCCNCCCNC(=O)C1CCC(=O)N1 (stereo not shown) [Py-C12, 5-N-carboxamido-2-pyrrolidone-N′-n-dodecyl propane-1,3-diamine]
- state of matter (pH 4.0, 24° C., 0.5M NaCl): X
- state of matter (pH 4.0, 24° C., 1.0M NaCl): X
- state of matter (pH 4.0, 24° C., 1.5M NaCl): X
- state of matter (pH 4.0, 24° C., 2.0M NaCl): o
- state of matter (pH 4.0, 24° C., 2.5M NaCl): o
- state of matter (pH 4.0, 24° C., 3.0M NaCl): o
- state of matter (pH 4.0, 24° C., no NaCl): X
- state of matter (pH 4.0, 32° C., 0.5M NaCl): X
- state of matter (pH 4.0, 32° C., 1.0M NaCl): X
- state of matter (pH 4.0, 32° C., 1.5M NaCl): X
- state of matter (pH 4.0, 32° C., 2.0M NaCl): X
- state of matter (pH 4.0, 32° C., 2.5M NaCl): o
- state of matter (pH 4.0, 32° C., 3.0M NaCl): o
- state of matter (pH 4.0, 32° C., no NaCl): X
- state of matter (pH 4.0, 36° C., 0.5M NaCl): X
- state of matter (pH 4.0, 36° C., 1.0M NaCl): X
- state of matter (pH 4.0, 36° C., 1.5M NaCl): X
- state of matter (pH 4.0, 36° C., 2.0M NaCl): X
- state of matter (pH 4.0, 36° C., 2.5M NaCl): X
- state of matter (pH 4.0, 36° C., 3.0M NaCl): X
- state of matter (pH 4.0, 36° C., no NaCl): X
- state of matter (pH 4.0, 45° C., 0.5M NaCl): X
- state of matter (pH 4.0, 45° C., 1.0M NaCl): X
- state of matter (pH 4.0, 45° C., 1.5M NaCl): X
- state of matter (pH 4.0, 45° C., 2.0M NaCl): X
- state of matter (pH 4.0, 45° C., 2.5M NaCl): X
- state of matter (pH 4.0, 45° C., 3.0M NaCl): X
- state of matter (pH 4.0, 45° C., no NaCl): X
- state of matter (pH 7.0, 24° C., 0.5M NaCl): X
- state of matter (pH 7.0, 24° C., 1.0M NaCl): X
- state of matter (pH 7.0, 24° C., 1.5M NaCl): X
- state of matter (pH 7.0, 24° C., 2.0M NaCl): o
- state of matter (pH 7.0, 24° C., 2.5M NaCl): o
- state of matter (pH 7.0, 24° C., 3.0M NaCl): o
- state of matter (pH 7.0, 24° C., no NaCl): X
- state of matter (pH 7.0, 28° C., 0.5M NaCl): X
- state of matter (pH 7.0, 28° C., 1.0M NaCl): X
- state of matter (pH 7.0, 28° C., 1.5M NaCl): X
- state of matter (pH 7.0, 28° C., 2.0M NaCl): X
- state of matter (pH 7.0, 28° C., 2.5M NaCl): o
- state of matter (pH 7.0, 28° C., 3.0M NaCl): o
- state of matter (pH 7.0, 28° C., no NaCl): X
- state of matter (pH 7.0, 32° C., 0.5M NaCl): X
- state of matter (pH 7.0, 32° C., 1.0M NaCl): X
- state of matter (pH 7.0, 32° C., 1.5M NaCl): X
- state of matter (pH 7.0, 32° C., 2.0M NaCl): X
- state of matter (pH 7.0, 32° C., 2.5M NaCl): X
- state of matter (pH 7.0, 32° C., 3.0M NaCl): o
- state of matter (pH 7.0, 32° C., no NaCl): X
- state of matter (pH 7.0, 36° C., 0.5M NaCl): X
- state of matter (pH 7.0, 36° C., 1.0M NaCl): X
- state of matter (pH 7.0, 36° C., 1.5M NaCl): X
- state of matter (pH 7.0, 36° C., 2.0M NaCl): X
- state of matter (pH 7.0, 36° C., 2.5M NaCl): X
- state of matter (pH 7.0, 36° C., 3.0M NaCl): X
- state of matter (pH 7.0, 36° C., no NaCl): X
- state of matter (pH 7.0, 45° C., 0.5M NaCl): X
- state of matter (pH 7.0, 45° C., 1.0M NaCl): X
- state of matter (pH 7.0, 45° C., 1.5M NaCl): X
- state of matter (pH 7.0, 45° C., 2.0M NaCl): X
- state of matter (pH 7.0, 45° C., 2.5M NaCl): X
- state of matter (pH 7.0, 45° C., 3.0M NaCl): X
- state of matter (pH 7.0, 45° C., no NaCl): X
- state of matter (pH 9.0, 28° C., 0.5M NaCl): o
- state of matter (pH 9.0, 28° C., 1.0M NaCl): o
- state of matter (pH 9.0, 28° C., 1.5M NaCl): o
- state of matter (pH 9.0, 28° C., 2.0M NaCl): o
- state of matter (pH 9.0, 28° C., 2.5M NaCl): o
- state of matter (pH 9.0, 28° C., 3.0M NaCl): o
- state of matter (pH 9.0, 28° C., no NaCl): o
- state of matter (pH 9.0, 32° C., 0.5M NaCl): o
- state of matter (pH 9.0, 32° C., 1.0M NaCl): o
- state of matter (pH 9.0, 32° C., 1.5M NaCl): o
- state of matter (pH 9.0, 32° C., 2.0M NaCl): o
- state of matter (pH 9.0, 32° C., 2.5M NaCl): o
- state of matter (pH 9.0, 32° C., 3.0M NaCl): o
- state of matter (pH 9.0, 32° C., no NaCl): o
- state of matter (pH 9.0, 36° C., 0.5M NaCl): o
- state of matter (pH 9.0, 36° C., 1.0M NaCl): o
- state of matter (pH 9.0, 36° C., 1.5M NaCl): o
- state of matter (pH 9.0, 36° C., 2.0M NaCl): o
- state of matter (pH 9.0, 36° C., 2.5M NaCl): o
- state of matter (pH 9.0, 36° C., 3.0M NaCl): o
- state of matter (pH 9.0, 36° C., no NaCl): o
- state of matter (pH 9.0, 45° C., 0.5M NaCl): X
- state of matter (pH 9.0, 45° C., 1.0M NaCl): X
- state of matter (pH 9.0, 45° C., 1.5M NaCl): X
- state of matter (pH 9.0, 45° C., 2.0M NaCl): X
- state of matter (pH 9.0, 45° C., 2.5M NaCl): X
- state of matter (pH 9.0, 45° C., 3.0M NaCl): X
- state of matter (pH 9.0, 45° C., no NaCl): X
